PubChem BioAssay AID1259354 (Paczesny and Yang Labs, IUPUI and University of Michigan, 2018)
Where “and” joins values, the source holds several entries; their conditions need not be identical. Identical values can stand only once. In all, about 78,000 compounds went through this assay and about 1,800 (2.3%) were called active. Inconclusive means that the source gave no clear call. Such entries were picked first, then a sample of the others. Rule as the data show it: active = inhibition above about 30%; inconclusive = mostly about 10% to 28%; inactive = weaker than that.

Sequences of proteins named here, by UniProt entry; tags and fusion partners are left off. A change or cut given only in a name is not applied to a line headed by its entry.
UniProt Q01638: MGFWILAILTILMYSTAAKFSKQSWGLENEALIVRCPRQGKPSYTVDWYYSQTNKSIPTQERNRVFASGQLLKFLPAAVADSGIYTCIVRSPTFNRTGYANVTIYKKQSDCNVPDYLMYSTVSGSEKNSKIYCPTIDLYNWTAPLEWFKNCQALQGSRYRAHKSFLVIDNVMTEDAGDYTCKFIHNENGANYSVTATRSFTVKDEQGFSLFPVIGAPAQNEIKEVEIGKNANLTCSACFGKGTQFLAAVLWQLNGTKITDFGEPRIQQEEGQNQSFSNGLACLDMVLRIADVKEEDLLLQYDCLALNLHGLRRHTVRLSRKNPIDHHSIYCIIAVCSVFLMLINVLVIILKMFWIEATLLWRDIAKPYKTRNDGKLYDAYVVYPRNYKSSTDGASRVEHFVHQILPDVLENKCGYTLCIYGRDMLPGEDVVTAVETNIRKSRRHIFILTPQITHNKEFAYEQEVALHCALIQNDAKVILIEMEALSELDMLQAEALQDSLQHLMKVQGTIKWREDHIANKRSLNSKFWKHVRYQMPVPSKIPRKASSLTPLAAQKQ

The molecules below were run against Interleukin-1 receptor-like 1 (Homo sapiens) (UniProt Q01638) (assay: blocks human ST2 binding to IL-33, primary screen, biochemical, AlphaLISA (AID 1259354)). Details: AlphaLISA ST2-Fc/biotin-IL-33 interaction, 1 h; at 17 µM, active compounds read high.
For `Cn1c(=O)c2c3c(sc2n2cnnc12)CC(C(C)(C)C)CC3` (stereo not drawn), the inhibition was “inactive”. For `CCOC(=O)c1sc2ncnc(N(CC)Cc3ccccc3)c2c1C`, the inhibition was inconclusive: 11%. With `O=C(c1ccccc1Cl)N1CCN(c2ccc([N+](=O)[O-])cc2)CC1` the inhibition was “inactive”. `CCc1ccccc1NC(=O)C(CC)N1C(=O)C2(OCCCO2)c2ccccc21` (stereo not drawn) was tested, and the inhibition was inconclusive: 10%. With `COc1ccccc1C(=O)O/N=C1/C=CC(=O)C=C1C` the inhibition was inconclusive: 19%. For `Cc1ccc2occ(CN3CC(=O)N(Cc4cnn(C)c4)CC(OCc4cccnc4)C3)c(=O)c2c1` (stereo not drawn), the inhibition was inconclusive: 20%. `COc1cc2c(cc1OC)CN(Cc1ccc(OCc3ccccc3)cc1)CC2` was tested, and the inhibition was inconclusive: 18%. With `COC(=O)c1cc2n(n1)CCCN(c1nccc(N3CCC(O)CC3)n1)C2` the inhibition was “inactive”. With `O=[N+]([O-])c1ccc(N2CCOCC2)cc1NCCCO` the inhibition was “inactive”. In the case of `CCCCn1cnc2oc(-c3ccc(OC)cc3)c(-c3ccc(OC)cc3)c2c1=N`, the inhibition is reported as inconclusive: 26% and inconclusive: 23%. `COc1cc(-c2cc(-c3ccccc3)nc(SCC(=O)O)c2C#N)cc(OC)c1OC` was tested, and the inhibition was inconclusive: 14%. `Cc1ncc(-c2c(-c3ccccc3)ncn2Cc2noc(C3CC3)n2)s1` was tested, and the inhibition was “inactive”. In the case of `O=c1oc(-c2ccco2)cc(-c2ccccc2)c1-c1ccccc1`, the inhibition is reported as inconclusive: 28%. `O=C(N[C@H]1CCN2C(=O)c3cc(Br)ccc3NC(=O)[C@@H]2C1)c1ccco1` was tested, and the inhibition was inconclusive: 10%. In the case of `CC(C)c1ccc(N(C(=O)c2ccc(Br)o2)C2C=CS(=O)(=O)C2)cc1` (stereo not drawn), the inhibition is reported as inconclusive: 13%. For `O=C(NCc1ccccc1)C1CCN(c2ccc(-c3cccs3)nn2)CC1`, the inhibition was “inactive”. In the case of `CN(CCOc1ccccc1)c1ncnc2[nH]ccc12`, the inhibition is reported as “inactive”. In the case of `O=C(CN1C2=NCCN2c2ccccc21)c1ccc([N+](=O)[O-])cc1`, the inhibition is reported as inconclusive: 13%. `COCCNC(=O)c1cc2sc3ccccc3c2s1` was tested, and the inhibition was inconclusive: 14%. For `CNCC[C@@H](Oc1ccc(C(F)(F)F)cc1)c1ccccc1`, the inhibition was inconclusive: 12%. In the case of `COc1ccc(-c2csc(/C(C#N)=C/c3ccc(Cl)cc3)n2)cc1`, the inhibition is reported as active: 34%. With `CCC1(C)Cc2c(sc3c2c(=O)n(C)c2nnc(SCCc4ccccc4)n32)CO1` (stereo not drawn) the inhibition was inconclusive: 16%. In the case of `Cc1cc(C(=O)Nc2ccc(F)c(Cl)c2)ccc1[N+](=O)[O-]`, the inhibition is reported as inconclusive: 20%. `Cc1ccc(NC(=O)NCCc2nc3cccnc3n2C2CCCCC2)cc1F` was tested, and the inhibition was inconclusive: 12%. With `Cc1ccc(C(=O)Nc2cccc(OCc3cc(=O)n4ccc(C)cc4n3)c2)cc1` the inhibition was “inactive”. With `CC1(C2CCC(=O)O2)CC(=O)c2c(O)cc(CO)cc2O1` (stereo not drawn) the inhibition was active: 30%. For `CCOc1cc([N+](=O)[O-])cc(/C=C2/SC(=Nc3ccccc3)NC2=O)c1O`, the inhibition was inconclusive: 20%. `O=C(C1C=CCN1)N1CCC(c2cc(-c3ccccc3Cl)n[nH]2)CC1` (stereo not drawn) was tested, and the inhibition was inconclusive: 16%. `COc1cccc(NC(=O)CCC2CCN(C(=O)CSc3ccccc3)CC2)c1` was tested, and the inhibition was “inactive”. With `COc1ccc2nc(N3CCC(C(=O)NCCCN4CCOCC4)CC3)sc2c1` the inhibition was “inactive”. `CCc1ccccc1NS(=O)(=O)c1ccc2[nH]c(=O)sc2c1` was tested, and the inhibition was “inactive”. `N#Cc1c(N2CCCCC2)ncc2c(=O)c3ccccc3[nH]c12` was tested, and the inhibition was inconclusive: 11%. With `Cc1ccc(-c2nc(S(=O)(=O)c3ccc(C)cc3)c(NCc3ccco3)o2)cc1` the inhibition was “inactive”. For `CCOc1ccc(C2CC(=O)N3CN(Cc4ccco4)CSC3=C2C#N)cc1` (stereo not drawn), the inhibition was inconclusive: 13%. With `O=C1NC(c2ccc(Cl)cc2)Nc2sc3c(c21)CCCC3` (stereo not drawn) the inhibition was inconclusive: 10%. For `O=C(NCc1ccccc1)N[C@H]1CO[C@H]2[C@@H]1OC[C@@H]2n1nnnc1Oc1ccc(-n2cncn2)cc1`, the inhibition was inconclusive: 12%. In the case of `CNC(=O)C1CCC(Cn2c(=O)c3sccc3n(CC(=O)NCc3cccc(OC)c3)c2=O)CC1` (stereo not drawn), the inhibition is reported as inconclusive: 18%. For `CCCCOC(=O)C1=C(C)N(C)C(=O)NC1c1ccccc1` (stereo not drawn), the inhibition was “inactive”. For `CCOc1ccc(C(=O)Nc2cccc(Cl)c2)cc1Br`, the inhibition was “inactive”. With `CC(=O)c1ccc(NC(=O)C(CC(C)C)N2C(=O)c3ccccc3C2=O)cc1` (stereo not drawn) the inhibition was inconclusive: 16%. For `CCN(CC)CCNC(=O)CN1C(=O)/C(=C/c2ccccc2F)Sc2ccccc21`, the inhibition was inconclusive: 17%. For `CC(C)c1ccc(NC(=O)O[C@@H]2CO[C@H]3[C@@H]2OC[C@@H]3NC(=S)Nc2cccc(C#N)c2)cc1`, the inhibition was inconclusive: 12%. With `O=C(Nc1ccc(F)c(Cl)c1)c1cc2cc3ccc(Cl)cc3nc2o1` the inhibition was inconclusive: 18%. In the case of `COc1ccc(C2C(C#N)=C(N)Oc3n[nH]c(-c4ccc(F)cc4)c32)cc1OC` (stereo not drawn), the inhibition is reported as active: 31%. `CC1=C[C@@H](CN2CCN(c3ccccn3)CC2)[C@H](C(C)C)C[C@H]1Cc1nnc(-c2ccccc2F)o1` was tested, and the inhibition was “inactive”. In the case of `Cc1ccc(NC(=O)c2cc([N+](=O)[O-])ccc2N2CCCC2)cc1`, the inhibition is reported as inconclusive: 10%. For `Cn1c(=O)c2nc(-c3ccccc3Cl)oc2c2ccccc21`, the inhibition was “inactive”. In the case of `Cc1ccc(S(=O)(=O)Nc2ccc3oc(C)c(C(=O)OCc4ccccc4)c3c2)cc1`, the inhibition is reported as “inactive”. With `CC(C)c1cc(C(=O)N2CCCn3nc(C(=O)NC4CC4)cc3C2)on1` the inhibition was inconclusive: 25%. `Cc1ccc(-c2nc3cccnc3o2)cc1NC(=O)c1cccc([N+](=O)[O-])c1C` was tested, and the inhibition was “inactive”. In the case of `COc1ccc(C(=O)Nc2nc(C)cs2)cc1[N+](=O)[O-]`, the inhibition is reported as inconclusive: 18%. With `CN1CCN(C2CC(=O)N(c3ccc(Cl)cc3Cl)C2=O)CC1` (stereo not drawn) the inhibition was inconclusive: 14%. In the case of `COc1ccc2cc3cc(C(=O)NC4CCCC(C)C4C)oc3nc2c1` (stereo not drawn), the inhibition is reported as inconclusive: 26%. With `CCOC(=O)C1(Cc2ccccc2Cl)CCN(C(=O)CSc2nnc(CC)o2)CC1` the inhibition was “inactive”. `CCOC(=O)N1CCN(C(=O)c2ccc3nc(-c4ccco4)c(-c4ccco4)nc3c2)CC1` was tested, and the inhibition was inconclusive: 15%. `CN(CCc1ccccn1)C(=O)C1CCC(Cn2c(=O)[nH]c3ccsc3c2=O)CC1` (stereo not drawn) was tested, and the inhibition was “inactive”. In the case of `CCOc1nc(NCCC2=CCCCC2)nc(OCC)n1`, the inhibition is reported as “inactive”. For `CC1CN(Cc2cccc([N+](=O)[O-])c2)CC(C)O1` (stereo not drawn), the inhibition was inconclusive: 18%.
